Laboratory results reported in patent US7468376B2, “Pyrazolopyridine derivates” (Palau Pharma, S.A., priority 2003, dated 2008).

Test system: TNF-α release induced by LPS in human peripheral blood mononuclear cells
Assay: Test 2: Inhibition of TNF-α release induced by LPS in human peripheral blood mononuclear cells
Type: cell-based
Conditions: test product at 0.1 μM, LPS 400 ng/mL, 19 h, TNF-α in supernatant by ELISA
Procedure: Test 2: Inhibition of TNF-α Release Induced by LPS in Human Peripheral Blood Mononuclear Cells
To obtain the mononuclear cells: heparinized venous blood, obtained from healthy volunteers, is diluted with an equal volume of saline phosphate buffer without calcium or magnesium. Aliquots of 30 mL of the mixture are transferred to 50 mL centrifuge tubes containing 15 mL of Ficoll-Hypaque (1.077 g/mL). The tubes are centrifuged at 1200×g for 20 min at room temperature without braking. Approximately two-thirds of the band of platelets lying above the mononuclear cells is removed with a pipette. The mononuclear cells are carefully transferred to a 50 mL tube, washed twice with saline phosphate buffer, centrifuged at 300×g for 10 min at room temperature and resuspended in RPMI supplemented with 1% inactivated fetal bovine serum at a cell density of 2×10^6 cells/mL.
Inhibition of TNF-α release: 100 μL of mononuclear cells (2×10^6 cells/mL) are incubated on 96-well plates with 50 μL of the test product (final concentration, 0.001-10 μM) and 50 μL LPS (E. coli 055B5, Sigma) at a final concentration of 400 ng/mL for 19 h at 37° C. in an atmosphere with CO2 at 5%. The amount of TNF-α released in the supernatant is quantified using a commercial ELISA kit (Biosource International).

## NCCn1cc2c(-c3ccc(F)cc3)c(-c3ccncc3)c(-c3ccc(F)cc3)nc2n1 [Example 90]
  % Inhibition at 0.1 μM: 86.3%
